In ChEMBL document CHEMBL4325856, “Synthesis of cinnamic amide derivatives and their anti-melanogenic effect in α-MSH-stimulated B16F10 melanoma cells” (Eur J Med Chem, 2019):
Activity calls are given as the source filed them. The rule behind the calls is not given here.

Molecular target: T1, Tyrosinase (Agaricus bisporus) (UniProt O42713)
T1 sequence (whole entry): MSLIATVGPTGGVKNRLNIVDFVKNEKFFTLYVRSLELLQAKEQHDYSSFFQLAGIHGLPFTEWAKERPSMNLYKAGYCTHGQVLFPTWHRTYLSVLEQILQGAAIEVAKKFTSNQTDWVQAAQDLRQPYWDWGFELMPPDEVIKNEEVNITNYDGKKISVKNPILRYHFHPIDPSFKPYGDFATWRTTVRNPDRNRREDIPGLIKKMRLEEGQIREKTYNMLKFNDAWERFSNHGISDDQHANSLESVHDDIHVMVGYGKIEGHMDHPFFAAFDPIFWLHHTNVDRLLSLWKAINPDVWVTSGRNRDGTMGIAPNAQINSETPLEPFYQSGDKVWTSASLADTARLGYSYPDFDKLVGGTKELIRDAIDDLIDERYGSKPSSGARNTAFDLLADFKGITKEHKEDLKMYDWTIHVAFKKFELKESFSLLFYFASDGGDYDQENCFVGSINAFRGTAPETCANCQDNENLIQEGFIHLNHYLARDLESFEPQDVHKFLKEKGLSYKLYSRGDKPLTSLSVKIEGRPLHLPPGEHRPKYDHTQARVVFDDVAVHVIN
Settings: at 25 µM

inhibition: inactive
SMILES: O=C(/C=C/c1ccc(O)cc1)Nc1ccccc1
